Library screen at single concentrations

The filed quantity is “Percent Effect” (%).
How 0% and 100% were set is not recorded. Most values in the screen are low, and negative values occur.
The compounds are a random part of those screened.

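Growth of Mycobacterium tuberculosis over 4 days (cholesterol / DPPC medium with tyloxapol); the read-out is not stated. Concentration: 500 µM. The record gives no direction; compounds that gave an IC50 in retests scored well above the rest, so higher reads as more growth inhibition. Of about 18,000 compounds tested this way, about 900 (5%) reached 50% or more in at least one test.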

* NC(=O)CN1CCCN(C(=O)c2cccs2)CC1 | 1.016%
* Cc1nnc(CN2CCCCC2c2ccccn2)o1 (centres unmarked) | 11.21%
* CC[C@H](N)C(=O)N1CC(Oc2c(C)cccc2C)C1 | 18.63%
* O=C(COc1ccccc1)NCCn1ccnc1 | 18.46%
* COCC(=O)N1CCN(CCC(C)C)CC1 | 4.71%
* Cc1nc(CCCN)sc1C | -0.7929%
* CNC(=O)C1CCN(S(C)(=O)=O)c2cc(C)ccc2O1 (centres unmarked) | 15.49%
* NC(=O)CN1CCCN(Cc2ccccc2)CC1 | -28.22%
* Cc1nc(SCC(N)=O)c(C#N)c2c1CCCC2 | 6.657%
* O=C(CC1CCS(=O)(=O)C1)NCc1cc(F)ccc1F (centres unmarked) | -0.6667%
* CC(O)c1ccc2c(c1)CC(=O)N2 (centres unmarked) | 2.155%
* OCCOC1CCCN(c2nc3ccccc3[nH]2)C1 (centres unmarked) | 10.35%
* COC(=O)c1cnn(-c2ccccc2)n1 | -11.38%
* CS(=O)(=O)N1CCCC(N)C1 (centres unmarked) | -4.121%
* CC(C)Cc1cc(C(=O)NCC2(O)CCOCC2)[nH]n1 | 16.86%
* CCc1ccccc1NC(=O)CN(C)C(=O)C1CC1 | 0.6678%
* COC(C)C(=O)OCCn1nc2ccccn2c1=O (centres unmarked) | -4.478%
* CCCC(=O)N1CCN(C(=O)NCC)CC1 | -9.386%
* CC(=O)N1CCC(CN(C)Cc2ccc(Br)o2)C1 (centres unmarked) | 24.06%
* CN(C)CCNC(=O)C1Cc2ccccc2CN1 (centres unmarked) | 13.54%
* CN(C)S(=O)(=O)NCCNc1ccc2ccccc2n1 | 52.74%
* COCCNS(=O)(=O)c1ccc2c(c1)CCO2 | 12.03%
* COCCOc1ccc(NC(=O)CSC(C)(C)C)cn1 | -191.9%
* c1nc(C2CNCCO2)no1 (centres unmarked) | -1.21%
* COc1ccc(C#N)cc1CN1CCNC(=O)CC1 | -8.317%
* CCNCc1cccc(NC(=O)C(C)COC)c1 (centres unmarked) | -14.34%
* Cc1ccccc1OCCC(=O)NC1CCS(=O)(=O)C1 (centres unmarked) | -9.707%
* NCC(=O)N1CCCCC1 | 0.6719%
* CCn1cc(CNC2(C(=O)OC)CC2)cn1 | -7.169%
* O=C(CN(C1CCCC1)C1CC1)N1CCNC1=O | 1.097%
* CNCC(=O)NC1CCS(=O)(=O)C1 (centres unmarked) | 6.674%
* CN1CN(C(=O)c2ccccc2)CC1=O | -6.701%
* CNC(=O)c1ccc(S(=O)(=O)NCCCOC)cc1 | 4.904%
* CC1(CN)CCCN1Cc1ccccc1 (centres unmarked) | -1.581%
* CN(CCn1ccnc1)Cc1ccccc1OCCO | 5.769%
* CN(C)C(=O)CNc1ccnc2ccc(Cl)cc12 | -11.05%
* CNCc1nc(C(F)(F)F)cs1 | 4.224%
* CCOC(=O)CNC(=O)c1nc2ncccn2n1 | -7.681%
* CC(C)=CCO[C@@H]1COCC[C@H]1NC(=O)CN(C)C | -10.18%
* Cc1noc(C)c1CC(=O)N(C)Cc1cccnc1 | 2.052%
* CCN(C(=O)Cc1cccs1)C(C)CS(C)(=O)=O (centres unmarked) | 8.784%
* CCNc1nnc(SCc2ccnn2C)s1 | 17.54%
* NCCc1ncc(-c2ccccc2)[nH]1 | 5.704%
* NC(=O)C1CCN(CCOc2ccccc2)CC1 | -6.42%
* O=S(=O)(Cc1ccc(Cl)cc1)c1ccccn1 | 27.84%
* O=C1CN(C(=O)CCOc2ccc(Cl)cc2)CCN1 | 6.455%
* CCN(CC)C1CCN(C(=O)Cc2cccnc2)CC1 | -5.666%
* O=C(N[C@H](CO)c1ccccc1)c1cccnc1 | -7.246%
* Cc1cc(Br)cnc1N(C)CC(O)CN1CCOCC1 (centres unmarked) | -13.87%
* Cc1nnc(CN2CCN(CC(O)C(C)(C)C)CC2)o1 (centres unmarked) | 2.573%
* CNC(=O)c1cccnc1N1CCSCC1 | -10.08%
* CN(Cc1ccc(S(C)(=O)=O)cc1)CC1COCCO1 (centres unmarked) | 0.8498%

Some entries from above, unchanged:

| compound | Percent Effect |
|---|---|
| `COC(C)C(=O)OCCn1nc2ccccn2c1=O` (centres unmarked) | -4.478 |
| `CCN(CC)C1CCN(C(=O)Cc2cccnc2)CC1` | -5.666 |
| `OCCOC1CCCN(c2nc3ccccc3[nH]2)C1` (centres unmarked) | 10.35 |
| `CNCC(=O)NC1CCS(=O)(=O)C1` (centres unmarked) | 6.674 |

Source: ChEMBL document CHEMBL3988442, “University of Dundee, Small-Polar-MMV Screening Library” (2021).